The record followed here is PMC12586438.

This assay has as its target T1, FAIM2, bait of the IP-MS (UniProt Q9BWQ8).
T1 sequence: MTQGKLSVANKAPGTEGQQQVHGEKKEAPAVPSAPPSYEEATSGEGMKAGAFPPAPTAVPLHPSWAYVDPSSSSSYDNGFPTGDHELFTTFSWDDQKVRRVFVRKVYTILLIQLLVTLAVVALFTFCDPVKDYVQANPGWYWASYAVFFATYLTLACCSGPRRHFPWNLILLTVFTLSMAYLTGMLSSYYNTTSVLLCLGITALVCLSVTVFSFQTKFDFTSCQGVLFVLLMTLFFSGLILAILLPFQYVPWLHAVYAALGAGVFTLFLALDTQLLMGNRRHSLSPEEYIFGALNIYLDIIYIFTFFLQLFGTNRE
Description: affinity purification with mass spectrometry; immunoprecipitation of FAIM2 and mass spectrometry (IP-MS); cells not given.

No constants are given. Whether binding was seen depends on the method and setting. In cells and extracts the contact can be indirect. These calls come from enrichment with a bait or labelling near it, and not all partners need be listed.

B1: CRTC2, hit of the IP-MS (protein, UniProt Q53ET0 1-693)
chain: MATSGANGPGSATASASNPRKFSEKIALQKQRQAEETAAFEEVMMDIGSTRLQAQKLRLAYTRSSHYGGSLPNVNQIGSGLAEFQSPLHSPLDSSRSTRHHGLVERVQRDPRRMVSPLRRYTRHIDSSPYSPAYLSPPPESSWRRTMAWGNFPAEKGQLFRLPSALNRTSSDSALHTSVMNPSPQDTYPGPTPPSILPSRRGGILDGEMDPKVPAIEENLLDDKHLLKPWDAKKLSSSSSRPRSCEVPGINIFPSPDQPANVPVLPPAMNTGGSLPDLTNLHFPPPLPTPLDPEETAYPSLSGGNSTSNLTHTMTHLGISRGMGLGPGYDAPGLHSPLSHPSLQSSLSNPNLQASLSSPQPQLQGSHSHPSLPASSLARHVLPTTSLGHPSLSAPALSSSSSSSSTSSPVLGAPSYPASTPGASPHHRRVPLSPLSLLAGPADARRSQQQLPKQFSPTMSPTLSSITQGVPLDTSKLSTDQRLPPYPYSSPSLVLPTQPHTPKSLQQPGLPSQSCSVQSSGGQPPGRQSHYGTPYPPGPSGHGQQSYHRPMSDFNLGNLEQFSMESPSASLVLDPPGFSEGPGFLGGEGPMGGPQDPHTFNHQNLTHCSRHGSGPNIILTGDSSPGFSKEIAAALAGVPGFEVSAAGLELGLGLEDELRMEPLGLEGLNMLSDPCALLPDPAVEESFRSDRLQ
As for B1, the binding entry is listed as “binds”.
